Hit rate of the full screen: of about 400,000 compounds, about 13,000 (3.2%) were called active. The shares of active, inactive and inconclusive entries below differ from those in the screen. The call rests on the fitted dose curve; in most records, active means well fitted cell-killing curve with a large enough effect; inconclusive means small, poorly fitted or top-dose-only effect, or effect the other way; inactive means flat fitted curve, though single readings scatter. A potency beside an inconclusive call is a rough fit, not a confirmed value.
Experiment: qHTS assay for MDR1-selective chemotherapeutics: Primary screen using the drug-selected MDR subline cells KB-V1; further: nearly all actives have a fitted effect of over 60% in size
Settings: KB-V1 MDR cells viability, CellTiter-Glo, 72 h; activity change, negative = cytotoxicity: at 46.1 µM (top of the series)
Procedure, shortened: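 Luminescent ATP read-out (CellTiter-Glo, 10 min) measures survival of drug-selected KB-V1 MDR cells after 72 h, 37 degrees C compound exposure. Medium: phenol-red-free DMEM, 10% FBS. Values from fitted concentration-response curves.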
On the % scale 0 is the no-effect control and ±100 the full control effect; potency means the concentration at half of the fitted maximal effect.

Row | SMILES | Potency | activity change, negative = cytotoxicity
1 | O=C(Nc1ccc(OCc2ccccc2Cl)cc1)c1cccnc1 | inconclusive: 16.4 µM [cytotoxic, single point] | –
2 | CCOc1cc(Br)ccc1S(=O)(=O)NCc1ccccc1 | active: 14.6 µM | –
3 | O=C(CSc1nnc(-c2ccccn2)o1)Nc1ccccc1C(F)(F)F | inconclusive: 14.6 µM [cytotoxic, partial curve, poor fit] | –
4 | CCCCCNC(=O)c1cccnc1SCC(=O)Nc1ccccc1OC | active: 6.51 µM | –
5 | CCOc1ccccc1Oc1c(C)oc2cc(OC(=O)N3CCOCC3)ccc2c1=O | active: 23.1 µM | –
6 | CCOC(=O)N1CCN(C(=O)CN(c2cccc(C)c2)S(=O)(=O)c2ccccc2)CC1 | active: 2.91 µM | –
7 | O=C(Nc1ccc(Br)cc1)c1ccc(F)c(S(=O)(=O)NCc2cccs2)c1 | inconclusive: 8.2 µM [cytotoxic, partial curve, poor fit] | –
8 | CCOC(=O)[C@]12CCC=C1N(Cc1ccco1)C(=O)[C@H](CC(=O)N1CCCCC1)C2 | – | inactive: 0%
9 | CCc1nnc(NC(=O)c2nc(S(=O)(=O)Cc3ccc(C)cc3)ncc2Cl)s1 | inconclusive: 29.1 µM [cytotoxic, single point] | –
10 | COc1ccc(NC(=O)c2cccc(NC(=O)c3ccco3)c2)c(OC)c1 | inconclusive: 9.2 µM [cytotoxic, partial curve] | –
11 | O=[N+]([O-])c1ccc(/C=N/N2CCCCC2)cc1 | – | inactive: -6.72%
12 | COCCCNC(=O)CNC(=O)c1nn(-c2ccc(OC)cc2OC)c(=O)c2ccccc12 | inconclusive: 20.6 µM [rising, partial curve, poor fit] | –
13 | CC(/C=N/Nc1ncc(C)c(=O)[nH]1)=C\c1ccccc1 | inconclusive: 29.1 µM [cytotoxic, single point] | –
14 | COc1ccc(-c2cc(CCCC(=O)NCc3ccccn3)no2)cc1 | inconclusive: 14.6 µM [cytotoxic, partial curve, poor fit] | –
15 | CC(C)CNS(=O)(=O)c1ccc(CCC(=O)N2CCN(Cc3ccc4c(c3)OCO4)CC2)cc1 | inconclusive: 5.8 µM [cytotoxic, full curve, poor fit] | –
16 | Cc1cc(C)n(-c2cc(N3CCN(C(=O)c4cccc(F)c4)CC3)ccc2[N+](=O)[O-])n1 | inconclusive: 20.6 µM [cytotoxic, single point] | –
17 | COc1cc(C2C(C#N)=C(N)N(Nc3ccccc3)C3=C2C(=O)CC(C)(C)C3)ccc1OCc1ccccc1 (stereo not given) | – | inactive: -10.8%
18 | COc1ccc(-c2ccccc2)cc1NC(=O)c1ccncc1 | inconclusive: 1.64 µM [rising, partial curve, poor fit] | –
19 | Cc1ccc(C(=O)c2cc([N+](=O)[O-])ccc2N2CC(C)OC(C)C2)cc1 (stereo not given) | inconclusive: 16.4 µM [cytotoxic, partial curve] | –
20 | CCOc1ccccc1N1CCN(c2ncnc3scc(-c4ccc(OC)cc4)c23)CC1 | inconclusive: 23.1 µM [cytotoxic, single point] | –
21 | COC(=O)c1ccc(CSc2nc(-c3ccco3)cc(C(F)(F)F)n2)o1 | inconclusive: 29.1 µM [cytotoxic, single point] | –
22 | CCC(=O)N1CCc2cc(S(=O)(=O)NC(C(=O)NCCc3ccccc3)C(C)C)ccc21 (stereo not given) | – | inactive: -17.3%
23 | CCOC(=O)C1CCCN(C(=O)c2ccccc2OC(F)(F)F)CC1 (stereo not given) | – | inactive: -3.55%
24 | CCOC(=O)Nc1ccc(NC(=O)c2c(OC)cccc2OC)cc1 | inconclusive: 29.1 µM [cytotoxic, single point] | –

Row | SMILES | Potency | activity change, negative = cytotoxicity
25 | S=c1[nH]nc(C2CCCCC2)n1/N=C/c1ccccc1Cl | – | inactive: 4.63%
26 | COc1cccc2c1N1C(=O)c3c(C(=O)O)cccc3C1CC2(C)C (stereo not given) | – | inactive: 2.45%
27 | CCOC(=O)C1CCCN(C(=O)c2cc3nc(-c4ccc5c(c4)OCO5)cc(C(F)(F)F)n3n2)C1 (stereo not given) | inconclusive: 18.4 µM [cytotoxic, partial curve] | –
28 | Cc1nn(-c2ccccc2)c(C)c1/C=N\N1CCN(c2ccc(Cl)cc2)CC1 | inconclusive: 13 µM [cytotoxic, partial curve] | –
29 | O=C(CSCc1ccc(Br)cc1)Nc1ccc(S(=O)(=O)N2CCOCC2)cc1 | active: 20.6 µM | –
30 | CCc1noc(C)c1C(=O)Nc1nc(-c2cc(OC)ccc2OC)cs1 | – | inactive: -19.6%
31 | Cc1ccc(C)c(NC(=S)c2nc3ccccc3s2)c1 | – | inactive: 10.7%
32 | Cc1cccc(-n2ncc(C(=O)N3CCN(C4CCCCC4)CC3)c2C2CCN(C(=O)OC(C)(C)C)CC2)c1 | – | inactive: -0.427%
33 | COc1cc(S(=O)(=O)NCCOC23CC4CC(CC(C4)C2)C3)c(OC)cc1Cl | active: 5.8 µM | –
34 | CCOC(=O)Cc1csc(NC(=O)c2cccc(OC)c2)n1 | – | inactive: -12.6%
35 | CCNc1nc(NC(C)C)nc(Nn2cnnc2)n1 | – | inactive: 0%
36 | CC(=O)Nc1cccc(-c2cc(NC(C)=O)c3ncc(-c4ccc(F)cc4)n3c2)c1 | inconclusive: 23.1 µM [cytotoxic, single point] | –
37 | COc1ccc(CN(C)CC(=O)Nc2c(C)cccc2C)c(OC)c1 | inconclusive: 11.6 µM [cytotoxic, partial curve] | –
38 | COc1cccc(CNC(=O)Cn2c(=O)ccc3cc(S(=O)(=O)N4CCC(C)CC4)ccc32)c1 | – | inactive: 25.8%
39 | O=C(Nc1ccc(C(F)(F)F)cc1)c1ccccc1 | – | inactive: 9.53%
40 | COc1cc(SC)ccc1C(=O)NC1CCCCC1 | inconclusive: 29.1 µM [cytotoxic, partial curve, poor fit] | –
41 | O=S(=O)(c1ccc(NC(=S)N2CCN(c3ccccc3F)CC2)cc1)N1CCOCC1 | inconclusive: 20.6 µM [cytotoxic, single point] | –
42 | CCOc1ccccc1N(CC(=O)NCCc1ccc(OC)cc1)S(=O)(=O)c1ccc(C)cc1 | inconclusive: 4.61 µM [cytotoxic, partial curve] | –
43 | Cn1c(=O)[nH]c2cc3ccccc3cc21 | active: 1.3 µM | –
44 | O=C(/C=C/c1ccccc1)N1CCC(c2ccccc2)C1 (stereo not given) | active: 20.6 µM | –
45 | O=C(NCC1CCCO1)C(=O)N/N=C/c1ccc(OCc2ccccc2Cl)cc1 (stereo not given) | – | inactive: 26.7%
46 | COc1ccc(-c2[nH]c(-c3cccc(OC)c3)nc2SCC(=O)Nc2ccc3c(c2)OCO3)cc1 | inconclusive: 32.6 µM [cytotoxic, single point] | –
47 | COc1cccc(OC)c1C(=O)Nc1sc2c(c1C(N)=O)CCCC2 | – | inactive: -18.8%
48 | CC(c1ccccc1)n1c(-c2ccncc2)n[nH]c1=S (stereo not given) | inconclusive: 29.1 µM [rising, single point] | –

5 entries drawn at random from those above, as already listed:
Row | SMILES | Potency | activity change, negative = cytotoxicity
28 | Cc1nn(-c2ccccc2)c(C)c1/C=N\N1CCN(c2ccc(Cl)cc2)CC1 | inconclusive: 13 µM [cytotoxic, partial curve] | –
38 | COc1cccc(CNC(=O)Cn2c(=O)ccc3cc(S(=O)(=O)N4CCC(C)CC4)ccc32)c1 | – | inactive: 25.8%
27 | CCOC(=O)C1CCCN(C(=O)c2cc3nc(-c4ccc5c(c4)OCO5)cc(C(F)(F)F)n3n2)C1 (stereo not given) | inconclusive: 18.4 µM [cytotoxic, partial curve] | –
32 | Cc1cccc(-n2ncc(C(=O)N3CCN(C4CCCCC4)CC3)c2C2CCN(C(=O)OC(C)(C)C)CC2)c1 | – | inactive: -0.427%
30 | CCc1noc(C)c1C(=O)Nc1nc(-c2cc(OC)ccc2OC)cs1 | – | inactive: -19.6%

Next part:

Row | SMILES | Potency | activity change, negative = cytotoxicity
49 | COc1ccc(C(=O)NC(=S)NNC(=O)COc2ccccc2)cc1 | inconclusive: 29.1 µM [cytotoxic, single point] | –
50 | FCCCOc1ccc(-c2ccnc(-c3ccccc3)n2)cc1 | inconclusive: 41.1 µM [rising, single point] | –
51 | CCCCOc1cccc(C(=O)N(Cc2ccccc2)C2CCS(=O)(=O)C2)c1 (stereo not given) | inconclusive: 8.2 µM [cytotoxic, partial curve] | –
52 | CCC(=O)NNc1nc2c(C)cccc2s1 | – | inactive: 2.84%
53 | COc1cc(NS(=O)(=O)c2ccc(NC(=S)NC(=O)/C=C/c3ccco3)cc2)ncn1 | inconclusive: 5.8 µM [rising, full curve, poor fit] | –
54 | Cc1ccc(C(C(=O)NCc2ccc(F)cc2)N(C(=O)c2csnn2)C2CC2)cc1 (stereo not given) | – | inconclusive: -14.6%
55 | Nc1nonc1-c1noc(-c2ccccc2Br)n1 | inconclusive: 29.1 µM [cytotoxic, single point] | –
56 | COc1ccc(CN(C(=O)c2snc(C(N)=O)c2N)C(C(=O)NC2CCCC2)c2cc(OC)ccc2OC)cc1 (stereo not given) | inconclusive: 13 µM [cytotoxic, partial curve] | –
57 | CCCCCN1C(C(=O)c2ccccc2)=C(NC(=O)c2ccc(OC)cc2)c2ccccc2S1(=O)=O | inconclusive: 9.2 µM [cytotoxic, partial curve] | –
58 | COc1ccccc1C(=O)Oc1c(Sc2ccccc2)c(C)nn1C(C)(C)C | – | inactive: 2.77%
59 | COc1ccc(-c2c3c(=O)n(C)c(=O)n(C)c3c3n2-c2ccccc2NC3c2ccc(OC)cc2)cc1 (stereo not given) | – | inactive: -4.96%
60 | Cc1ccc(NC(=O)c2cc(S(=O)(=O)N(C)C3CCCCC3)ccc2F)cc1C | – | inactive: -0.086%
61 | c1ccc(-c2ccc(-c3nc(-c4ccncc4)no3)cc2)cc1 | inconclusive: 32.6 µM [cytotoxic, single point] | –
62 | COc1ccc(NC(=O)c2ccc(-c3nc(CSc4ccc(C)cc4)c(C)o3)cc2)cc1Cl | inconclusive: 29.1 µM [cytotoxic, partial curve, poor fit] | –
63 | CCc1noc(C)c1C(=O)OC(C)C(=O)Nc1ccccc1OC (stereo not given) | inconclusive: 14.6 µM [cytotoxic, partial curve, poor fit] | –
64 | CCN(c1cccc(C)c1)S(=O)(=O)c1ccc(N2CCCCS2(=O)=O)cc1 | inconclusive: 18.4 µM [cytotoxic, single point] | –
65 | Nc1ccc(C(=O)N/N=C/c2cn(Cc3ccccc3)c3ccccc23)cc1 | active: 29.1 µM | –
66 | Cc1ccc(-n2c(C3CC3c3ccc(Cl)cc3)n[nH]c2=S)cc1 (stereo not given) | active: 20.6 µM | –
67 | COc1cccc(-c2cnc3c(NC=O)cc(-c4ccc(OC)cc4OC)cn23)c1 | inconclusive: 0.517 µM [cytotoxic, full curve, poor fit] | –
68 | CCOC(=O)Nc1ccc2c(c1)N(C(=O)C(C)N1CCCC1)c1ccccc1CC2 (stereo not given) | inconclusive: 20.6 µM [cytotoxic, single point] | –
69 | CCN(CC)S(=O)(=O)c1cccc(NC(=O)COC(=O)c2cncc(Br)c2)c1 | inconclusive: 6.51 µM [rising, full curve] | –
70 | COc1ccc(Cl)cc1NC(=O)CN(C)CC(=O)Nc1cccc(S(=O)(=O)N2CCCC2)c1 | inconclusive: 18.4 µM [cytotoxic, partial curve] | –
